Test results taken from PubChem BioAssay AID1117319 (Southern Research Institute, 2015).
Screen size: about 260,000 compounds; about 1,500 (0.58%) were called active. This list was built around the results that the source calls inconclusive (neither active nor inactive); the mix of calls is not that of the screen.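 Rule for the calls: active = inhibition above a set limit at one or more doses, reproduced on every date tested; inconclusive = results disagree between test dates, or hit never tested in dose response; inactive = the rest.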

Sequences of proteins named here, by UniProt entry; tags and fusion partners are left off. A change or cut given only in a name is not applied to a line headed by its entry.
UniProt P69720: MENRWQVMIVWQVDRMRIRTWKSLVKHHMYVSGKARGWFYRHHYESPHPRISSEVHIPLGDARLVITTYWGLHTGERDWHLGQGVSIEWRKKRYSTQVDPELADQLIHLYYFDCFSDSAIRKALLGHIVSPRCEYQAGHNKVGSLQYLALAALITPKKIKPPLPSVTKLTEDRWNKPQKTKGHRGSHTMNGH
UniProt P69721: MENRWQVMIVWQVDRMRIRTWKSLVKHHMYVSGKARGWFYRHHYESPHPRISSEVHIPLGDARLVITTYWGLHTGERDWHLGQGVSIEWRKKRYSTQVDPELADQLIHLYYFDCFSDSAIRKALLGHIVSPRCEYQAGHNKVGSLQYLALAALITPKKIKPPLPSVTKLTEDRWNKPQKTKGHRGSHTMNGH
UniProt P69722: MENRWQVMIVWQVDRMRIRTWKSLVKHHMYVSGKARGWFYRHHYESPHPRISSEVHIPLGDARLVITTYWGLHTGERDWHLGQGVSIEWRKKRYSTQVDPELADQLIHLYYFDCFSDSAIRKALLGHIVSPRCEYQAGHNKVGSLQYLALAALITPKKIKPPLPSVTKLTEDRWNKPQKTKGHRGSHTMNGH
UniProt P69723: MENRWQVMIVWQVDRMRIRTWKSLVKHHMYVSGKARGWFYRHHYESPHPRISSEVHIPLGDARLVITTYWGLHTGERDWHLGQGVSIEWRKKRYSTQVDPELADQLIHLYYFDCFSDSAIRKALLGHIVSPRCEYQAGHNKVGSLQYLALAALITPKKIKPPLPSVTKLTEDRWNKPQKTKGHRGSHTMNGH
UniProt Q9HC16: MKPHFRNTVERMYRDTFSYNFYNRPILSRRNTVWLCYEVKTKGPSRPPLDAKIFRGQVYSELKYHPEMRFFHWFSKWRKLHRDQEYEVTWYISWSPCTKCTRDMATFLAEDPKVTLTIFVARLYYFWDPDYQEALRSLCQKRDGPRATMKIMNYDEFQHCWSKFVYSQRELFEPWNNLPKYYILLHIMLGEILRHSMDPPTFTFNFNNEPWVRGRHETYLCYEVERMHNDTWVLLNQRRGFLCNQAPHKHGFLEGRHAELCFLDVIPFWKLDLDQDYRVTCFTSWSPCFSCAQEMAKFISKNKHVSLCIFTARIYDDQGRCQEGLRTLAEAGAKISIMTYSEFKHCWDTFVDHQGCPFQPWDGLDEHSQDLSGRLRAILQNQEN

Target: Virion infectivity factor (Human immunodeficiency virus type 1 group M subtype B (isolate BH10)) + Virion infectivity factor (Human immunodeficiency virus type 1 group M subtype B (isolate BRU/LAI)) + Virion infectivity factor (Human immunodeficiency virus type 1 group M subtype B (isolate PCV12)) + Virion infectivity factor (Human immunodeficiency virus type 1 group M subtype B (isolate HXB2)) + DNA dC->dU-editing enzyme APOBEC-3G (Homo sapiens) (UniProt P69720+P69721+P69722+P69723+Q9HC16)
Experiment: inhibitors of Vif binding to APOBEC3G peptide, primary screen, biochemical, TR-FRET, GST-Vif 1-94, biotin-A3G peptide, dose response retest (AID 1117319);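 note: Vif residues 1-94 fused to GST binding biotinylated APOBEC3G peptide 110-148; 0% = full assay without inhibitor and 100% = GST in place of GST-Vif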
Conditions: active compounds read high

SMILES | inhibition
O=C(NC1CCCCC1)NC1(C(=O)N2CCN3CCCC3C2)CCCCC1 (stereo not drawn) | inconclusive: 61.7%
C=CCC(CC=C)(NC(=O)c1ccccc1)c1ccccc1 | inconclusive: 36.4%
COc1ccc([N+](=O)[O-])cc1NCc1ccco1 | inconclusive: 39.6%
Cc1ccc(S(=O)(=O)n2nc(OC(=O)c3ccco3)cc2N)cc1 | inactive: 7.76%
CCOc1ccc(NC(=O)CSCc2cnn(-c3ccccc3)c2-n2cccc2)cc1 | inactive: -1.2%
CCN(CC)CCN1CCn2c3c(c4cc(C)ccc42)CCCC31 (stereo not drawn) | inconclusive: 51.4%
C=CCn1c(CCCNC(=O)CCC)nc2ccccc21 | inconclusive: 34.7%
O=C(Cn1cnc2ccccc2c1=O)NCC(=O)N1CCN(Cc2ccc3c(c2)OCO3)CC1 | inconclusive: 37%
O=C(Oc1ccc2ccc(=O)oc2c1)N1CCOCC1 | inconclusive: 54.3%
O=c1ccnc2n1COCS2 | inconclusive: 50.9%
CCOc1ccc(-n2c(C)cc(/C=N/NC(=O)C(N)=O)c2C)cc1 | inconclusive: 35.3%
Cc1csc(NC(=O)c2ccc(C(=O)Nc3nc(C)cs3)cc2)n1 | inconclusive: 53.4%
O=C(COC(=O)c1ccccc1C(=O)c1ccccc1)c1ccco1 | inconclusive: 1.51%
Cc1ccccc1NS(=O)(=O)c1cccc(-c2nnc(-c3ccccc3)o2)c1 | inconclusive: 41.8%
N#CCC(=O)Nc1ccc(C(=O)OC(C(=O)Nc2cc(C(F)(F)F)ccc2Cl)c2ccccc2)cc1 (stereo not drawn) | inactive: 6.13%
CCc1nnc(NC(=O)C2=NN(C3CCS(=O)(=O)C3)C(=O)CC2)s1 (stereo not drawn) | inconclusive: 37.6%
COc1cc(CN2CCC(CO)(CCOc3ccccc3)CC2)cc(OC)c1OC | inconclusive: 38.9%
O=C(c1ccccc1Cl)N(Cc1ccc(Cl)c(Cl)c1)N1C(=O)CCCC1=O | inconclusive: 54.7%
CN1c2ccccc2N(C)C1(C)c1ccccc1 | inconclusive: 33.2%
CC(=O)NN1C(=O)/C(=C\c2ccc(Cl)cc2)SC1=S | inactive: 7.42%
Cc1ccc(OCCNC(=O)CNC(=O)c2ccccc2Cl)cc1 | inactive: -0.63%
N#Cc1c(F)cccc1N1CCC(C#N)CC1 | inconclusive: 60.6%
Cc1ccc(C(=O)N2N=C(c3ccccc3)CC2(O)C(F)(F)F)o1 (stereo not drawn) | inconclusive: 49%
Cc1cccnc1Nc1nc(-c2ccc(O)cc2)cs1 | inconclusive: 44.4%

SMILES | inhibition
O=C(NCCCN1CCOCC1)c1cc(-c2ccc(Cl)cc2)on1 | inconclusive: 36.8%
CC(C)NC(=O)CSc1nc2ccccc2n1-c1ccccc1 | inconclusive: 59.1%
O=C(O)CCCC(=O)N1CCN(c2cccc(Cl)c2)CC1 | inconclusive: 35.1%
N#CC1=C(N)C(C#N)(C#N)C(c2cccnc2)C2COCC=C12 (stereo not drawn) | inactive: 0.31%
Cc1onc(-c2c(Cl)cccc2Cl)c1-c1nc2cc(Cl)ccc2c(=O)o1 | inconclusive: 46.2%
CC(C(=O)NCCc1nc2ccccc2[nH]1)n1cc([N+](=O)[O-])cn1 (stereo not drawn) | inconclusive: 34.7%
O=C(c1ccc(F)cc1)N1CCCC(C(=O)N2CCc3ccccc3C2)C1 (stereo not drawn) | inconclusive: 40%
O=C(O)CCC1(c2ccccc2)NC(=O)NC1=O (stereo not drawn) | inconclusive: 52%
COc1ccccc1NS(=O)(=O)c1cc(NC(=O)C2CCCC2)ccc1N1CCOCC1 | inconclusive: 58.2%
COc1cc(/C=N/NC(=O)c2ccoc2C)ccc1O | inconclusive: 61.5%
CCN(CC)CCNC(=O)c1ccc(Sc2ccc(C)cc2)c(NC(C)=O)c1 | inconclusive: 52.1%
O=C(NC(c1ccc(Cl)cc1)c1cc(Cl)c2cccnc2c1O)c1cccnc1 (stereo not drawn) | inconclusive: 54.1%
Cc1ccc(-c2cc(C(=O)NC3=NCCS3)c3ccccc3n2)cc1C | inactive: -1.5%
COc1cc(OC)cc(C(=O)NCC(=O)OCc2nc3ccccc3s2)c1 | inactive: 5.21%
Cc1ccc(COc2coc(CO)cc2=O)cc1 | inconclusive: 41.9%
O=C(N1CCOCC1)C(F)(F)C(F)(F)C(F)(F)C(F)(F)C(=O)N1CCOCC1 | inconclusive: 23.2%
COc1ccc(-c2c3c(=O)n(C)c(=O)n(C)c3cn2NC(C)=O)cc1 | inconclusive: 37.7%
Cc1ccc(NNC(=O)c2ccno2)cc1Cl | inconclusive: 41.6%
CCOc1ccccc1N=c1oc2cc(O)ccc2cc1C(=O)NCC1CCCO1 (stereo not drawn) | inconclusive: 36.7%
CC(=O)Nc1ccc2nc3c(=O)n(C)c(=O)n(C)c3nc2c1 | inconclusive: 37.5%
CCOc1ccc(NS(=O)(=O)c2cc(NC(=O)CCC(=O)c3cccs3)ccc2Cl)cc1 | inconclusive: 51.9%
Cc1cc(C(F)(F)F)n2nc(C)c(-c3ccc(Cl)cc3)c2n1 | inactive: -0.47%
CCCN(CCC)C(=O)CSc1ncccc1C(=O)O | inconclusive: 40.7%
Cc1ccc(O)c(N=Cc2cccs2)c1 | inconclusive: 40.8%

Another view of part of the listing above:
SMILES	inhibition
COc1cc(OC)cc(C(=O)NCC(=O)OCc2nc3ccccc3s2)c1	inactive: 5.21%
Cc1ccc(COc2coc(CO)cc2=O)cc1	inconclusive: 41.9%
O=C(N1CCOCC1)C(F)(F)C(F)(F)C(F)(F)C(F)(F)C(=O)N1CCOCC1	inconclusive: 23.2%
COc1ccc(-c2c3c(=O)n(C)c(=O)n(C)c3cn2NC(C)=O)cc1	inconclusive: 37.7%
Cc1ccc(NNC(=O)c2ccno2)cc1Cl	inconclusive: 41.6%
CCOc1ccccc1N=c1oc2cc(O)ccc2cc1C(=O)NCC1CCCO1 (stereo not drawn)	inconclusive: 36.7%
CC(=O)Nc1ccc2nc3c(=O)n(C)c(=O)n(C)c3nc2c1	inconclusive: 37.5%

Following part

SMILES | inhibition
C=CCSC1=N/C(=C\c2ccc(C(=O)O)cc2)C(=O)S1 | inactive: -15.6%
O=C(N/N=C/c1ccc(-c2ccccc2C(=O)O)o1)c1cccs1 | inconclusive: 41.2%
O=S(=O)(c1cccs1)N1CCN(C/C=C/c2ccccc2)CC1 | inconclusive: 61.6%
C=CCSC1=Nc2cc(OC)c(OC)cc2C2=NC(=O)CN12 | inconclusive: 35.1%
CC(C)(C)c1csc(NC2=NS(=O)(=O)c3ccccc32)n1 | inconclusive: 52.5%
COC(=O)/C=c1/s/c(=C(\C#N)C(=O)NCc2ccco2)n(-c2ccc(C)cc2)c1=O | inconclusive: 27.6%
CCN(CC)C(=O)c1ccc(C)c(Br)c1 | inactive: -4.6%
Cc1cc2ccccn2c1C(=O)c1nc(NCc2ccccc2)ncc1Cl | inactive: -3.29%
COc1cc(NS(=O)(=O)c2ccc(NC(=O)COc3ccccc3C)cc2)nc(OC)n1 | inconclusive: 57.2%
COc1ccccc1N1CCN(C(=O)COc2ccc(S(=O)(=O)NC(C)C)cc2)CC1 | inactive: 0.75%
CC1=C(C(=O)OC2CCCCC2)C(c2cccs2)n2c(nc3ccccc32)N1 (stereo not drawn) | inactive: -7.41%
N#C/C(=C/c1cccn1-c1cccc(C(=O)O)c1)c1ccc(F)cc1 | inactive: 0.42%
CCN(CC)c1ccc(NC(=O)Nc2ccc(C(C)=O)cc2)cc1 | inconclusive: 53.7%
Cc1c(N2C(=O)c3ccccc3C2=O)c(=O)n(-c2ccccc2)n1C | inconclusive: 51.2%
CCC(NC(=O)C1CCC1)c1ccccc1 (stereo not drawn) | inconclusive: 33.3%
Nc1ccc(N2CCN(c3cccc(Cl)c3)CC2)cc1 | inconclusive: 41.3%
CC(c1ccon1)N(C)Cc1cn(C)nc1-c1ccc2c(c1)OCCO2 (stereo not drawn) | inconclusive: 41.4%
CNc1oc(Cc2ccccc2)nc1S(=O)(=O)c1ccc(Cl)cc1 | inconclusive: 20.4%
Cc1cc(N)ccc1-n1c(C)ccc1C | inactive: 15.6%
CCN1CCN(CCOc2cccc(Cl)c2Cl)CC1 | inconclusive: 37.8%
CSc1nc2sc3c(c2c(=O)[nH]1)CCC(C)C3 (stereo not drawn) | inconclusive: 38.9%
O=C1c2ccccc2C(=O)C1Cc1cccc2ccccc12 | inconclusive: 49.6%
COc1ccccc1CN1CC(C(=O)N2CCCCCCC2)CCC1=O (stereo not drawn) | inconclusive: 48.4%
CC(=O)OC1C(OC(C)=O)C2C(C)CC3OC(=O)C(C)C3CC2(C)C1OC(C)=O (stereo not drawn) | inactive: 1.67%

SMILES | inhibition
CCOc1ccc(CC(=O)N2N=C(C)CC2(O)C(F)(F)F)cc1 (stereo not drawn) | inconclusive: 39.7%
Cc1cccc(C(=O)NC(=S)Nc2ccc(S(=O)(=O)N3CCCCC3)cc2)c1 | inconclusive: 45.8%
CC1=NN(c2ccccc2)C(=O)C1 | inconclusive: 41.5%
CNS(=O)(=O)c1cccc(C(=O)OCC(=O)c2c(N)n(C)c(=O)n(C)c2=O)c1 | inconclusive: 45.6%
O=C(CCc1nc2ccccc2c(=O)[nH]1)N1CCN(C/C=C/c2ccccc2)CC1 | inconclusive: 34.1%
[N-]=[N+]=NC1C[C@H](n2ccc(=O)[nH]c2=O)O[C@@H]1CO (stereo partly drawn) | inconclusive: 33.1%
CCOc1ccc(OCC)c(NC(=O)CSc2nnc(-c3cccnc3)o2)c1 | inconclusive: 29.8%
CCN(CC)c1ccc(C(=O)NNC(=O)c2cccn2C)cc1 | inactive: 5.54%
COc1cc(OC)cc(C(=O)OCc2ccc([N+](=O)[O-])cc2)c1 | inconclusive: 54.1%
COc1ccccc1NC(=O)c1cnc2n(c1=O)CCS2 | inconclusive: 33.4%
O=C(NC(=O)c1ccncc1)NC(c1ccccc1)c1ccccc1 | inconclusive: 38.5%
Cc1ccc(N=Cc2c(O)n(-c3cc(Cl)ccc3N3CCOCC3)c(=O)c3ccccc23)cc1C | inconclusive: 36.5%
CNC(=O)CSc1nc2sccc2c(=O)n1-c1ccccc1 | inconclusive: 44.6%
O=C(O)CCC(=O)Nc1ccc(OCC(=O)O)cc1 | inconclusive: 50.2%
CC(=O)N1CCN(S(=O)(=O)c2cccc(C(=O)Nc3ccccc3N3CCOCC3)c2)CC1 | inconclusive: 37.8%
O=C(O)CCNC(=O)c1ccccc1 | inconclusive: 33.4%
Cc1cc([N+](=O)[O-])nn1CC(=O)N/N=C/c1ccccc1Br | inactive: -3.16%
COC(=O)c1ccccc1NS(=O)(=O)c1ccc(F)cc1 | inconclusive: 33.9%
CCOc1ccc(N=Nc2c(C)noc2C)cc1 | inconclusive: 39.8%
O=C(O)c1ccc2cccc(Cl)c2c1O | inconclusive: 37.7%
O=C(C1CCCN1S(=O)(=O)c1ccc(Cl)cc1)N1CCCCC1 (stereo not drawn) | inactive: -2.58%
